Reference: US6544967B2, “Method for inhibiting bone resorption” (Merck & Co., Inc., priority 1997, dated 2003)

System: canine esophagus tissue
Experiment: Esophageal irritation potential, dog model (esophageal infusion in simulated gastric juice, histopathology)
Assay type: in vivo
Method: The esophageal irritation potential of the bisphosphonates is evaluated using a dog model.
The following solutions are prepared:
(1) simulated gastric juice (pH about 2), i.e. the control solution.
(5) simulated gastric juice (pH about 2) containing about 0.20 mg/mL of risedronate sodium on a risedronic acid active basis.
(6) simulated gastric juice (pH about 2) containing about 4.0 mg/mL of tiludronate disodium on a tiludronic acid active basis.
The simulated gastric juice is prepared by dissolving about 960 mg of pepsin (L-585,228000B003, Fisher Chemical) in about 147 mL of 0.90 (wt %) NaCl (aqueous), adding about 3 mL of 1.0 M HCl (aqueous), and adjusting the volume to about 300 mL with deionized water. The pH of the resulting solution is measured and if necessary is adjusted to about 2 using 1.0 M HCl (aqueous) or 1.0 M NaOH (aqueous).
The animals used in the experiments are anesthetized and administered about 50 mL of the appropriate solution over about 30 minutes by infusion into the esophagus using an infusion pump and a rubber catheter. The following treatment experiments are run:
Group 1: This control group contains four animals. Each animal is administered a dosage of about 50 mL of simulated gastric juice [solution (1)] on each of five consecutive days. The animals are sacrificed immediately after the last dose is administered.
Group 2: This group contains four animals. […]

With `NCCCC(O)(P(=O)(O)O)P(=O)(O)O` [Alendronate, 4-amino-1-hydroxybutylidene-1,1-bisphosphonic acid monosodium trihydrate] the “Esophageal irritation versus low concentration dosages on consecutive days (Group 2)” value (single high concentration dosage (Groups 3 and 4), comparable to control Group 1) was “considerably less esophageal irritation” and the “Esophageal irritation versus low concentration dosages on consecutive days (Group 2)” value (single high concentration on a weekly basis (Group 5)) was “consideraly less esophageal irritation”.
